The list shows only some results of the screen, not a fair sample: it gathers tests that were run many times, whatever their T/C, doses with no T/C, and many T/C values between a quarter and a half above the control. Other doses and runs of a compound stand elsewhere. T/C gives the treated animals as a percentage of the vehicle group. Some doses have a count of surviving animals in place of a T/C: the source files T/C as zero there, which appears to mark a toxic dose or a test without result, not a measured value. Some survivor counts are full or nearly so, which does not show that the dose was tolerated: the source hardly ever lists a survival T/C far under the control, and the zero likely stands for such cases as well. Survivors were counted at the toxicity check, usually on the fifth day, unless a day is given; later deaths do not show. Schedule codes are those of the source, read here as Q, the interval in days (D) or hours (H), X, the number of doses. For survival time, the PubChem record calls one and a half times the control and up active, and a quarter to a half above the control has no call in these data; cut-offs in other NCI protocols can differ. Some entries were tested several times; the results are listed from low to high. Some T/C values are followed by the survivors on the day toxicity was checked, most often the fifth; where none is given, no animal had died by that day.
System: P388 leukemia ip, CD2F1 mice, survival T/C
Experiment: NCI In Vivo Anticancer Drug Screen. Data for tumor model P388 Leukemia (intraperitoneal) in CD2F1 (CDF1) mice
Conditions: T/C endpoint: median survival time, higher T/C = longer survival
[1] = dose: 200.0 mg/kg/injection, schedule: Q01DX005 (ip), vehicle: saline with Tween-80
[2] = dose: 50.0 mg/kg/injection, schedule: Q01DX009 (ip), vehicle: Klucel (hydroxypropylcellulose) (HPC)

In the case of `Cc1ccc2cccc(OC(=O)Nc3cc(Cl)c(Cl)cc3Cl)c2n1`, the survivor count (dose: 60.0 mg/kg/injection, schedule: Q01DX005 (ip), vehicle: saline with Tween-80) is reported as 6 of 6 and the survivor count (dose: 120.8 mg/kg/injection, schedule: Q01DX005 (ip), vehicle: saline with Tween-80) is reported as 6 of 6.

`O=C1NNC(=O)C1C(=O)Nc1ccccc1` was tested, and the survivor count (dose: 7.5 mg/kg/injection, schedule: Q01DX005 (ip), vehicle: Klucel (hydroxypropylcellulose) (HPC)) was 5 of 6, the survivor count (dose: 30.0 mg/kg/injection, schedule: Q01DX005 (ip), vehicle: Klucel (hydroxypropylcellulose) (HPC)) was 2 of 6 and the survivor count (dose: 60.0 mg/kg/injection, schedule: Q01DX005 (ip), vehicle: Klucel (hydroxypropylcellulose) (HPC)) was 0 of 6. The survivor count (dose: 120.0 mg/kg/injection, schedule: Q01DX005 (ip), vehicle: Klucel (hydroxypropylcellulose) (HPC)) was 0 of 6 and the survivor count (dose: 240.0 mg/kg/injection, schedule: Q01DX005 (ip), vehicle: Klucel (hydroxypropylcellulose) (HPC)) was 0 of 6.

With `CCC(c1ccc(OC)cc1)C(NCC(=O)NNC(=O)CNC(c1ccc(OC)cc1)C(CC)c1ccc(OC)cc1)c1ccc(OC)cc1` (stereo unspecified) the survivor count (dose: 100.0 mg/kg/injection, schedule: Q04DX002 (ip), vehicle: saline with Tween-80) was 5 of 6.

With `C[C@]12CC[C@H](OC(=O)Cc3ccc(N(CCCl)CCCl)cc3)CC1=CC[C@@H]1[C@@H]2CC[C@]2(C)C(=O)CC[C@@H]12` the T/C (dose: 100.0 mg/kg/injection, schedule: Q04DX003 (ip), vehicle: saline with Tween-80) was 130 % of control, the T/C (dose: 256.0 mg/kg/injection, schedule: Q01DX009 (ip), vehicle: saline) was 140 % of control and the T/C (dose: 256.0 mg/kg/injection, schedule: Q03HX016 (ip), vehicle: saline) was 136 % of control. For the same molecule, the T/C (dose: 512.0 mg/kg/injection, schedule: Q01DX009 (sc), vehicle: saline) was 136 % of control and the T/C (dose: 2048.0 mg/kg/injection, schedule: Q01DX001 (sc), vehicle: saline) was 136 % of control.

For `Cn1c(Cl)c(/C=N\Nc2ccccc2[N+](=O)[O-])c2ccccc21`, the survivor count (dose: 12.5 mg/kg/injection, schedule: Q01DX001 (ip), vehicle: Klucel (hydroxypropylcellulose) (HPC)) was 6 of 6, the survivor count (dose: 25.0 mg/kg/injection, schedule: Q01DX001 (ip), vehicle: Klucel (hydroxypropylcellulose) (HPC)) was 6 of 6 and the survivor count (dose: 50.0 mg/kg/injection, schedule: Q01DX001 (ip), vehicle: Klucel (hydroxypropylcellulose) (HPC)) was 6 of 6. The survivor count (dose: 100.0 mg/kg/injection, schedule: Q01DX001 (ip), vehicle: Klucel (hydroxypropylcellulose) (HPC)) was 6 of 6.

`O=C(N/N=C/c1cc(Br)cc(Br)c1[O-])c1ccccc1.O=C(N/N=C/c1cc(Br)cc(Br)c1[O-])c1ccccc1.[Co+2]` was tested, and the survivor count (dose: 200.0 mg/kg/injection, schedule: Q01DX001 (ip), vehicle: saline with Tween-80) was 6 of 6 and the survivor count (dose: 400.0 mg/kg/injection, schedule: Q01DX001 (ip), vehicle: saline with Tween-80) was 6 of 6.

In the case of `CCOC(=O)N1CCN(C(=S)NNC(C)c2cccc[n+]2[O-])CC1` (stereo unspecified), the survivor count [1] is reported as 3 of 6.

In the case of `C[N+](C)(C)CCCOC1=Nc2ccccc2O/C1=C/c1ccccc1`, the survivor count (dose: 25.0 mg/kg/injection, schedule: Q01DX009 (ip), vehicle: Klucel (hydroxypropylcellulose) (HPC)) is reported as 5 of 6 and the survivor count [2] is reported as 0 of 6.

`Cn1nc(C#N)c(=O)[nH]c1=O` was tested, and the survivor count (dose: 100.0 mg/kg/injection, schedule: Q01DX005 (ip), vehicle: saline with Tween-80) was 0 of 6 and the survivor count [1] was 0 of 6.

For `O=C(N/N=C\c1ccc(N(CCCl)CCCl)cc1)c1cccnc1`, the T/C [2] was 127 % of control and the T/C (dose: 100.0 mg/kg/injection, schedule: Q01DX009 (ip), vehicle: Klucel (hydroxypropylcellulose) (HPC)) was 125 % of control [5 of 6 alive].

For `CCC(C1SC(=S)NC1=O)C1SC(=S)NC1=O` (stereo unspecified), the survivor count [1] was 3 of 5.

For `NC(=S=O)C(N)=S=O`, the T/C [1] was 127 and 135 % of control.

In the case of `CCCCCCCC/C=C\CCCCCCCCN1CC(C(=O)[O][Pb]([CH2]C)([CH2]C)[CH2]C)CC1=O` (stereo unspecified), the T/C (dose: 3.0 mg/kg/injection, schedule: Q01DX009 (ip), vehicle: saline with Tween-80) is reported as 140 % of control and the survivor count (dose: 12.0 mg/kg/injection, schedule: Q01DX009 (ip), vehicle: saline with Tween-80) is reported as 5 of 6.

In the case of `CCON1CCC(OC(=O)CC)(c2ccccc2)C(C)C1` (stereo unspecified), the survivor count (dose: 400.0 mg/kg/injection, schedule: Q01DX001 (ip), vehicle: saline) is reported as 1 of 6.

Source: PubChem BioAssay AID330 (DTP/NCI, 2004)
